Laboratory results from the supplement of paper PMC12578635.
The list shows a part of the results. Cut-off read from the data, not from the text of the source: active = 150% or more and inactive = the rest. Many values rest on one well or one pass, so single values are uncertain.

tested on: Staphylococcus aureus JE2-lux inside RAW 264.7 macrophages; test: intracellular bacterial bioluminescence relative to DMSO vehicle; higher = higher intracellular bacterial metabolic activity; settings: 10 µM; treatment time 4 h; gentamicin 50 µg/ml
Experimental: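 RAW 264.7 macrophages infected with bioluminescent MRSA JE2-lux (MOI 100) were dispensed into 384-well plates with 10 µM compound in the presence of 50 µg/ml gentamicin. After 4 h at 37 °C, bacterial bioluminescence (a proxy for intracellular bacterial metabolic activity) and host cell viability (CellTiter-Fluor) were read and normalised to 0.1% DMSO vehicle controls. Single-pass screen of the UNC CICBDD kinase-targeted library (>4,700 compounds).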

Intracellular bacterial bioluminescence, active:
O=C(Cn1c2ccccc2n2c(=O)cc(-c3cccc(Cl)c3)nc12)Nc1nccs1 155%, Cc1oc2ncnc(N3CCCC(C(=O)N4CCN(C5CCCCC5)CC4)C3)c2c1C (configuration not stated) 157%

Intracellular bacterial bioluminescence, inactive:
Cn1c(=O)n(CC(=O)N2CCCC2)c(=O)c2cc(S(=O)(=O)NCCC3=CCCCC3)ccc21 94.9%, O=C(Nc1ccc(F)cc1F)c1ccc(SCCN2CCOCC2)nc1 82.9%, O=C(Cc1ccccc1)Nc1nc(-c2nc3ccccc3s2)cs1 68.4%, Cc1ccc2nc(-c3ccc(F)cc3)nc(SCC(=O)N3CCOCC3)c2c1 121%, Cc1ccc(-c2nc(SCC(=O)NCc3ccco3)c3ccccc3n2)cc1 96.8%, COc1ccc(NC(=O)Nc2nc3cc(C)c(C)cc3s2)cc1 106%, O=C(NCc1ccc2c(c1)OCO2)c1ccc(Cl)c(S(=O)(=O)N2CCCC2)c1 115%, Cc1cc(Nc2ccc(N3CCOCC3)cc2)n2nc(Cc3cccc(F)c3)nc2n1 106%, CC(CCc1ccco1)NC(=O)Nc1cccc2ccccc12 (configuration not stated) 116%, O=C(O)CCC(=O)Nc1ccc(Cl)cc1-c1nc2ccccc2[nH]c1=O 99.8%, COc1cc(/C=C(\C#N)c2nc(-c3ccc([N+](=O)[O-])cc3)cs2)ccc1OC(C)=O 114%, Cc1ccc(C)c(NC(=O)c2cnc(N(C)C)nc2C)c1 73.2%, CC1=CC2=NC(=O)CC(C)(C(=O)NCc3n[nH]c4c3CCCC4)N2C=C1 (configuration not stated) 124%, O=C(O)Cc1c(-c2ccccc2)c2cc(Cl)ccc2[nH]c1=O 105%, CCOC(=O)c1sc(NC(=O)CCSc2ccccc2)cc1C 19.7%, O=C(Nc1sc2c(c1-c1nc3ccccc3s1)CCCC2)c1ccc(N2C(=O)CCC2=O)cc1 104%, COc1cccc(-n2c(=O)c3sc4ccccc4c3n(CC(=O)NC3CCCCC3)c2=O)c1 101%, O=C(COc1ncnc2ccccc12)Nc1cccc(C(=O)N2CCOCC2)c1 59.7%, COc1ccc(S(=O)(=O)NCC2COC3(CCCCC3)O2)cc1F (configuration not stated) 131%, COc1ccc(C(=O)Nc2cc3c4c(c2)CC(=O)N4CCC3)c(OC)c1 103%, COc1cccc(-n2c(N)cc(=O)nc2SCC(=O)N2CCN(c3ccccc3)CC2)c1 102%, O=C(O)CC1S/C(=N/c2ccccc2)N(c2ccccc2)C1=O (configuration not stated) 80.6%, CCNc1nc(NCC)nc(Sc2ccc([N+](=O)[O-])cc2[N+](=O)[O-])n1 59.6%, O=C(NCc1ccccc1)N1CCn2cccc2C1c1cccnc1 (configuration not stated) 93.6%, O=C1Nc2ccccc2Oc2ccc(NS(=O)(=O)Cc3ccc(F)cc3)cc21 106%, CCc1c(C#N)c(SCC(=O)c2cc3ccccc3oc2=O)nc2c1CCC2 100%, Cc1ccc2cc3c(nc2c1)sc1c(SCC(=O)Nc2ccccc2F)ncnc13 112%, Cc1cccc(NC(=O)NC2(C(=O)NCc3ccco3)CCCCC2)c1 128%, O=C(Nc1ncnc2sccc12)c1ccc(C(=O)c2ccccc2)cc1 13.2%, COc1ccc(CCNC(=O)COc2cccc3c2CCN(Cc2cccnc2)C3=O)cc1OC 89.6%, O=C(CCC(=O)N1CCN(C(c2ccccc2)c2ccccc2)CC1)Nc1noc2ccccc12 25.1%, COc1ccc(-c2cc(C(=O)NC3CCCCC3C)n[nH]2)cc1S(=O)(=O)N(C)C (configuration not stated) 47.7%, CC(=O)Nc1ccc(NC2=NC(=O)/C(=C\c3ccc(C)o3)S2)cc1 7.08%, CCN1CCN(c2ccc(C(=O)OC)cc2NC(=O)c2cccnc2)CC1 143%, COc1cc(NC(=O)N2CCn3cccc3C2c2ccc(F)c(F)c2)cc(OC)c1OC (configuration not stated) 42.3%, N=c1c(-c2nc3ccccc3s2)cc2c(=O)n3ccccc3nc2n1Cc1ccco1 119%, Cc1cc2cc(CCNC(=O)C34CC5CC(CC(C5)C3)C4)c(=O)[nH]c2cc1C 68.5%, Cc1ccc(CN2C(=O)/C(=C3/C(=O)Nc4ccccc43)SC2=S)cc1 111%, Cc1cc(NC(=O)C(=O)NCC(c2ccc3c(c2)CCCN3C)N2CCCC2)c2ccccc2n1 (configuration not stated) 142%, COc1ccc(NC(=O)Cn2cc(C(=O)c3ccc(C)c(C)c3)c(=O)c3cc4c(cc32)OCO4)cc1 77.2%, O=C(/C=C1\SC(=O)NC1=O)Nc1ncc(Cc2cccc(C(F)(F)F)c2)s1 111%, CCOC(=O)c1ccc(NC(=O)CCN2C(=O)/C(=C/c3ccccc3OC)SC2=S)cc1 93.7%, CCOC(=O)c1[nH]c2ccccc2c1NC(=O)c1ccc(N2C(=O)CCC2=O)cc1 108%, CCOC(=O)c1c(NC(=O)CCSc2nc3sc(C)c(C)c3c(=O)[nH]2)sc(C)c1C 117%, Cc1cc(NS(=O)(=O)c2ccc3onc(C(=O)N4CCCC4)c3c2)ccc1Br 109%, NS(=O)(=O)c1ccc(O)c(N2C(=O)c3cccc4c(C(=O)c5ccccc5)ccc(c34)C2=O)c1 91.5%, O=C1NCCc2c(OCc3cccc(C(F)(F)F)c3)cccc21 74.3%, Cc1ccc(-c2noc3ncnc(N4CCC(C(=O)NCc5ccc6c(c5)OCO6)CC4)c23)cc1 38.9%, CCS(=O)(=O)c1ccc(C(=O)Nc2nc3c(OC)ccc(C)c3s2)cc1 117%, COc1ccc(NC(=O)N(Cc2cc3cc(C)ccc3n3nnnc23)CC2CCCO2)cc1 (configuration not stated) 116%, CCSc1ccccc1C(=O)Nc1nc2c(s1)COc1ccccc1-2 100%, Cc1ccc(S(=O)(=O)Nc2ccccc2C(=O)Nc2cccc3c2C(=O)c2ccccc2C3=O)cc1 119%, Cc1cc2nc(C3CCCN3C(=O)c3snnc3C)[nH]c2cc1C (configuration not stated) 111%, CN1CCN(c2ncnc3scc(-c4ccc(Cl)cc4)c23)CC1 116%, COc1ccc(NC(=O)c2c(N)c(C(=O)c3ccc(OC)cc3)n3ccccc23)cc1 88.2%, CCC(NC(=O)Cn1c(-c2cccs2)cc2cccnc21)c1c(C)nn(CC)c1C (configuration not stated) 105%, COc1ccc(-c2cc(C(F)(F)F)n3nc(C(=O)N4CCN(c5ccccc5)CC4)nc3n2)cc1 50.7%, O=S(=O)(/N=C/c1c(O)ccc2ccccc12)c1cccs1 85.3%, c1ccc2c(c1)CCN(c1nc3cc4c(cc3s1)OCCO4)C2 88.2%, COC(=O)Cc1c(-c2ccccc2)c2cc(Br)ccc2[nH]c1=O 104%, CCn1c2c(c(=O)[nH]c1=O)C(c1cccs1)C1=C(CC(C)(C)CC1=O)N2 (configuration not stated) 99%, Clc1ccc(-c2nnc(C(c3ccccc3)N3CCc4ccccc4C3)o2)cc1 (configuration not stated) 93.2%, Cn1c(=O)[nH]c(=O)c2c1nc(N1CCOCC1)n2CCCSc1nc2ccccc2o1 118%, COCCn1c(SCC(=O)Nc2ccc(C(=O)OC)cc2)nc2cccnc21 72.7%, CCc1nc(-c2csc(S(=O)(=O)Nc3ccc(Cl)cn3)c2)no1 132%, CCc1ccc(Nc2nc(C(=O)O)nc3ccccc23)cc1 117%, CCOc1ccccc1NC(=O)Cn1c(C)c(Cc2ccccc2)c(=O)n2nc(-c3ccccc3)nc12 85.8%, Cc1cc(C)nc(NC(=O)c2ccc3c(c2)nnn3Cc2ccccc2C)n1 71.4%, O=C(NCCCN1CCOCC1)c1cc2n(n1)CCCN(Cc1ccc(F)cc1)C2=O 116%, COC(=O)c1ccc(CSc2nc(-c3ccc(F)cc3)nc3c2c(=O)n(C)c(=O)n3C)o1 86.4%, COc1ccc(C2c3[nH]c4ccccc4c3CCN2C(=O)c2cccnc2)cc1 (configuration not stated) 120%, CCCC(=O)Nc1nc2c(s1)C(=O)CC(C)(C)C2 115%, O=C(CSCc1ccccc1)Nc1cc(Cl)ccc1Cl 65.3%, COc1cc(C(=O)NC(=S)Nc2cccc3c2C(=O)NC3=O)cc(OC)c1OC 106%, CCc1nc2ccc(NC(=O)c3nc(-c4ccc(F)cc4)oc3C)cc2[nH]1 82.6%, CCOC(=O)c1sc2nc(NC(=O)C3CCCCC3)sc2c1C 104%, O=C(Nc1ccccc1)Nc1cccc(N2CCn3c(nc4cc(Cl)ccc43)C2)c1 23.7%, O=C(CSc1ccc([N+](=O)[O-])cc1[N+](=O)[O-])Nc1cccc(C(F)(F)F)c1 22.7%, COc1cc(Br)cc2c1Oc1nc(-c3ccccc3)nc(SCC(N)=O)c1C2 89.6%, Cc1sc(NC(=O)CN(Cc2ccc(F)cc2)C(=O)c2ccncc2)c(C(N)=O)c1C 94.4%, CC(C(=O)N1CCCc2ccccc21)n1cnc2onc(-c3ccc(Cl)cc3)c2c1=O (configuration not stated) 116%, CCN1CC2=C(OC(N)=C(C#N)C2c2ccc(F)cc2)/C(=C/c2ccc(F)cc2)C1 (configuration not stated) 107%, O=C(NCCc1c[nH]c2ccccc12)C(=O)c1cn(CC(=O)N2CCCC2)c2ccccc12 99.2%, Cc1cc(NC(=O)CN2CC(C)CC(C)C2)nc2c1c(=O)oc1ccccc12 (configuration not stated) 85.2%, CCOC(=O)c1nn(-c2ccc(F)cc2)c(=O)cc1OCC(=O)NCCc1ccc(OC)c(OC)c1 108%
